Some of these results come from one statement about several compounds together.
Test system: Male C57/BL6J mice
Assay: Mouse oGTT (Oral Glucose Tolerance Test)
Format: in vivo
Conditions: fasted 16 to 17 hours, compound 10 mg/kg orally, glucose orally 30 minutes after compound, AUC from 5 minutes before to 120 minutes after glucose

For `C[C@@H](Oc1ccc(C(=O)C2CC2)cc1)c1nc(-c2ccc(C(=O)N[C@@H]3COC[C@H]3O)c(F)c2)no1` [Example 2, 4-(5-{(1R)-1-[4-(cyclopropylcarbonyl)phenoxy]ethyl}-1,2,4-oxadiazol-3-yl)-2-fluoro-N-[(3R,4S)-4-hydroxytetrahydrofuran-3-yl]benzamide], which “percentage decrease in plasma glucose AUC (%) compared with the negative control group” value is on record?
Its value is ≥ 15%.

For `CC[C@@H](Oc1ccc(C(=O)C2CC2)cc1)c1nc(-c2ccc(C(=O)N[C@@H]3CCOC3=O)c(F)c2)no1` [Example 4, 4-(5-{(1R)-1-[4-(cyclopropylcarbonyl)phenoxy]propyl}-1,2,4-oxadiazol-3-yl)-2-fluoro-N-[(3R)-2-oxotetrahydrofuran-3-yl]benzamide], which “percentage decrease in plasma glucose AUC (%) compared with the negative control group” value is on record?
The value was ≥ 15%.

For `CC[C@@H](Oc1ccc(C(=O)C2CC2)cc1)c1nc(-c2ccc(C(=O)N[C@H]3CCOC3=O)c(F)c2)no1` [Example 5, 4-(5-{(1R)-1-[4-(cyclopropylcarbonyl)phenoxy]propyl}-1,2,4-oxadiazol-3-yl)-2-fluoro-N-[(3S)-2-oxotetrahydrofuran-3-yl]benzamide], which “percentage decrease in plasma glucose AUC (%) compared with the negative control group” value is on record?
The value was ≥ 15%.

`CC[C@@H](Oc1ccc(C(=O)C2CC2)cc1)c1nc(-c2ccc(C(=O)N[C@@H]3COC(=O)C3)c(F)c2)no1` [Example 6, 4-(5-{(1R)-1-[4-(cyclopropylcarbonyl)phenoxy]propyl}-1,2,4-oxadiazol-3-yl)-2-fluoro-N-[(3S)-5-oxotetrahydrofuran-3-yl]benzamide] was tested. Which “percentage decrease in plasma glucose AUC (%) compared with the negative control group” value did it give?
Its value is ≥ 15%.

How did the “percentage decrease in plasma glucose AUC (%) compared with the negative control group” value turn out when `CC[C@@H](Oc1ccc(C(=O)C2CC2)cc1)c1nc(-c2ccc(C(=O)N[C@@H]3CCNC3=O)c(F)c2)no1` [Example 7, 4-(5-{(1R)-1-[4-(cyclopropylcarbonyl)phenoxy]propyl}-1,2,4-oxadiazol-3-yl)-2-fluoro-N-[(3R)-2-oxopyrrolidin-3-yl]benzamide] was run?
The value was ≥ 15%.

Which “percentage decrease in plasma glucose AUC (%) compared with the negative control group” value does the source give for `CC[C@@H](Oc1ccc(C(=O)C2CC2)cc1)c1nc(-c2ccc(C(=O)N[C@@H]3C(=O)OC[C@H]3O)c(F)c2)no1` [Example 9, 4-(5-{(1R)-1-[4-(cyclopropylcarbonyl)phenoxy]propyl}-1,2,4-oxadiazol-3-yl)-2-fluoro-N-[(3S,4S)-4-hydroxy-2-oxotetrahydrofuran-3-yl]benzamide] here?
Its value is ≥ 15%.

For `C[C@@H](Oc1ccc(C(=O)C2CC2)cc1)c1nc(-c2ccc(C(=O)N[C@H]3CCNC3=O)c(F)c2)no1` [Example 11, 4-(5-{(1R)-1-[4-(cyclopropylcarbonyl)phenoxy]ethyl}-1,2,4-oxadiazol-3-yl)-2-fluoro-N-[(3S)-2-oxopyrrolidin-3-yl]benzamide], which “percentage decrease in plasma glucose AUC (%) compared with the negative control group” value is on record?
Its value is ≥ 15%.

For `CC[C@@H](Oc1ccc(C(=O)C2CC2)cc1)c1nc(-c2ccc(C(=O)N[C@@H]3C(=O)OC[C@@H]3O)c(F)c2)no1` [Example 12, 4-(5-{(1R)-1-[4-(cyclopropylcarbonyl)phenoxy]propyl}-1,2,4-oxadiazol-3-yl)-2-fluoro-N-[(3S,4R)-4-hydroxy-2-oxotetrahydrofuran-3-yl]benzamide], which “percentage decrease in plasma glucose AUC (%) compared with the negative control group” value is on record?
Its value is ≥ 15%.

With `C[C@@H](Oc1ccc(C(=O)C2CC2)cc1)c1nc(-c2ccc(C(=O)N[C@H]3COC[C@H]3O)c(F)c2)no1` [Example 14, 4-(5-{(1R)-1-[4-(cyclopropylcarbonyl)phenoxy]ethyl}-1,2,4-oxadiazol-3-yl)-2-fluoro-N-[(3S,4S)-4-hydroxytetrahydrofuran-3-yl]benzamide] as the compound, how does the “percentage decrease in plasma glucose AUC (%) compared with the negative control group” value read?
Its value is ≥ 15%.

From patent publication US9006273B2, “N-hetero-ring-substituted amide derivative” (Daiichi Sankyo Company, Limited, priority 2011, dated 2015)
